Laboratory results reported in patent publication EP4843985A1, “TRIAZOLOPYRIMIDINE DERIVATIVE, PREPARATION METHOD THEREFOR AND USE THEREOF” (dated 2026).
Structures were worked out from names or drawings and are uncertain.

By UniProt entry, the sequences of proteins in these tests, tags left out. Residues count along the entry.
UniProt Q14191, 517-1238 limits assumed: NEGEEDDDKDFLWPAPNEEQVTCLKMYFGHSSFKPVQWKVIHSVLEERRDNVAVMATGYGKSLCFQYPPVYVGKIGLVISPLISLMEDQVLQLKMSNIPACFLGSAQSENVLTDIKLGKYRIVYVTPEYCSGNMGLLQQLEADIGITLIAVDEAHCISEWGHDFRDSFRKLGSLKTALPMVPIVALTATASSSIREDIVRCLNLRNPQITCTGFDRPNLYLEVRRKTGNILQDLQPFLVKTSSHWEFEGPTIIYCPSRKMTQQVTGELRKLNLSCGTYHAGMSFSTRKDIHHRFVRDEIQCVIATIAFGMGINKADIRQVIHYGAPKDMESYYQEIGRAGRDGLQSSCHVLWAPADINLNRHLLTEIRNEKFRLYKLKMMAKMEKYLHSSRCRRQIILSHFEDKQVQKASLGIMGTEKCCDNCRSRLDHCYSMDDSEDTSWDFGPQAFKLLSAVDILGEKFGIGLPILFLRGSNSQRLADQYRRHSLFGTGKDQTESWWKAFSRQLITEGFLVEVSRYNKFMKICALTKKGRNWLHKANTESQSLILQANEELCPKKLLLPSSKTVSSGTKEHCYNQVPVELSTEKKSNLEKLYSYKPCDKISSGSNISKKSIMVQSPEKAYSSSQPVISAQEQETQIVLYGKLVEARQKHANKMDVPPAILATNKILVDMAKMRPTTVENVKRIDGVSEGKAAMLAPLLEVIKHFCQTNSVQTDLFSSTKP

Assays:
[1] = biological target: WRN protein (AA N517-P1238) (Homo sapiens, UniProt Q14191); experiment: In vitro WRN enzymatic activity assay (ADP-Glo ATPase assay); conditions: read-out: ADP-Glo; 10 nM WRN enzyme, 3 hours pre-incubation at 25°C, ssDNA substrate
SW620 (CRC, MSS) = experiment: Cell proliferation inhibition assay (CellTiter-Glo), SW620; conditions: read-out: SW620 (CRC, MSS), 120 hours
SW48 (CRC, MSI) = experiment: Cell proliferation inhibition assay (CellTiter-Glo), SW48; conditions: for IC50: read-out: SW48 (CRC, MSI), 120 hours, CellTiter-Glo
[2] = Pharmacokinetics in balb/c nude mice (IV and PO); conditions: for F: 10 mg/kg (vs IV 1 mg/kg)
[3] = test system: human colorectal cancer SW48 cell subcutaneous xenograft tumor; experiment: In vivo pharmacodynamic study in the SW48 xenograft tumor model; conditions: for TGI (%) Day21: N=6
Experimental: To evaluate the in vivo efficacy of the compounds in a human colorectal cancer SW48 cell subcutaneous xenograft tumor mouse model.
• Species: Mouse • Strain: NU/NU mouse • Age and body weight: 6-8 weeks of age, weighing 20-24 g • Sex: Female • Quantity: 110 (including remaining mice from grouping) • Supplier: Beijing Vital River Laboratory Animal Technology Co., Ltd. • Animal certificate: 110011241105714757
Human colon cancer SW48 cells (supplier: ECACC; catalog No.: 89012702) were cultured in vitro as a monolayer. The culture conditions were as follows: L-15 medium (supplier: Gibco; catalog No.: 11415-064) supplemented with 2 mM glutamine (supplier: Gibco; catalog No.: 25030-081), 10% fetal bovine serum (supplier: Excell; catalog No.: FSP500), and 1% antibiotics (supplier: Gibco; catalog No.: 15240-062) in a cell culture incubator at 37°C with 5% CO2. Routine passaging was performed by digestion twice a week. When the cell confluence reached 80% to 90% and the cell number met the requirement, the cells were harvested, counted, and inoculated.
A 0.1 mL cell suspension containing 3.0*10^6 SW48 cells (the cells were suspended in medium L15:Matrigel =1:1) was subcutaneously inoculated into the right dorsal flank of each mouse. On Day 7 after inoculation, animals with uniform and appropriate tumor sizes were selected for enrollment, with the mean tumor volume reaching 117 mm^3 (range: 89 mm^3 - 161 mm^3). The animals were assigned to groups according to tumor volume using a randomized block design, and dosing was initiated.
The health status and mortality of the animals were monitored daily. Routine inspections included observing the effects of tumor growth and drug treatment on the animals' daily behavioral performance, such as behavioral activity, food and water intake (visual inspection only), body weight changes (body weight was measured three times per week), appearance signs, or other abnormal conditions. Based on the number of animals in each group, the number of animal deaths and side effects within the group were recorded.
Tumor diameters were measured three times per week using a vernier caliper. The formula for calculating tumor volume was: V = 0.5a × b^2, wherein a and b represent the long and short diameters of the tumor, respectively.
The anti-tumor efficacy of the compounds was evaluated by the tumor growth inhibition rate TGI (%). The TGI (%) was calculated as: TGI (%) = [1 - (mean tumor volume of a treatment group at the end of administration - mean tumor volume of the treatment group at the start of administration) / (mean tumor volume of the vehicle control group at the end of treatment - mean tumor volume of the vehicle control group at the start of treatment)] × 100%.

[4] = Pharmacokinetics in dogs (IV and PO)
Experimental: Using mice, rats, dogs, and monkeys as test animals, the compounds of the present disclosure were studied after intravenous bolus injection and oral administration. Plasma samples were collected at specific time points, and the concentrations of the compounds in plasma were detected by LC-MS/MS. PK parameters were calculated to reflect the pharmacokinetic behavior of the compounds of the present disclosure in mouse plasma in vivo.
Beagle dogs, male, Beijing Marshall Biotechnology Co.,Ltd.
Administration information for dog: The IV administration dose was 0.5 mg/kg, with an administration volume of 0.5 mL/kg; the IV administration dose was 1 mg/kg, with an administration volume of 0.5 mL/kg; the PO administration dose was 1 mg/kg, with an administration volume of 2 mL/kg; and the vehicle was 10 vol% DMSO/20 vol% Solutol/70 vol% Saline.
After administration to mice, rats, dogs, and monkeys, blood was collected from the vein at 0.0833 (IV), 0.25, 0.5, 1, 2, 4, 8, and 24 hours, with volumes of 0.025, 0.2, 0.5, and 0.6 mL, respectively, placed into EDTA-K2 tubes, and centrifuged at 4°C and 2000 g for 10 min to separate plasma, which was stored at -80°C.
Dog plasma sample processing: • 1) 50 µL of plasma sample was added to 200 µL of acetonitrile for precipitation, vortexed to mix, and then centrifuged for 15 minutes. • 2) The treated supernatant was diluted with water, and the concentration of the test compound was analyzed by LC/MS/MS.
Herein, Cmax represents the maximum plasma concentration; CL represents clearance; Vss represents the volume of distribution at steady state; T1/2 represents the terminal elimination half-life; MRTInf represents the mean residence time; AUC represents the area under the plasma concentration-time curve; and F represents bioavailability. Table 6 Pharmacokinetic parameters of some compounds of the present disclosure after intravenous injection and oral administration in balb/c nude mice

SMILES	IC50 [1] [nM]	IC50 (SW620 (CRC, MSS)) [nM]	IC50 (SW48 (CRC, MSI)) [nM]	further results
CCc1c(N2CCN(C(=O)c3ncnc(C)c3O)CC2)c(=O)n2nc(C3=CCOCC3)nc2n1CC(=O)Nc1cc(C(F)(F)F)cs1	3.42	–	–	–
[2H]C1([2H])CCC(c2nc3n4c(c(N5CCN(C(=O)c6ncnc(C)c6O)[C@H]6CC[C@@H]65)c(=O)n3n2)C(C)CC4C(=O)Nc2cc(C(F)(F)F)sc2Cl)=CCO1 (some centres unmarked) [296-P2]	0.98	> 10000	17	–
CCc1c(N2CCN(C(=O)c3ncnc(C)c3O)CC2)c(=O)n2nc(C3=CCC(c4cnc(C)o4)CC3)nc2n1CC(=O)Nc1ccc(C(F)(F)F)cc1Cl (centres unmarked)	1.8	–	–	–
[2H]C1([2H])CCC(c2nc3n4c(c(N5CCN(C(=O)c6ncnc(C)c6O)[C@H]6CC[C@@H]65)c(=O)n3n2)C(C)CC4C(=O)Nc2cc(C(F)(F)F)sc2Cl)=CCO1 (some centres unmarked) [296-P4]	0.64	> 10000	8.95	AUC ([2]; IV, 1 mg/kg): 1767 ng·h/mL; T1/2 ([2]; IV, 1 mg/kg): 1.22 h; AUC ([2]; PO, 10 mg/kg): 6410 ng·h/mL; Cmax ([2]; PO, 10 mg/kg): 3010 ng/mL; F ([2]; PO): 36.0%
[2H]C1([2H])CCC(c2nc3n(CC(=O)Nc4csc(C(F)(F)F)c4C)c(CC)c(N4CCN(C(=O)c5ncnc(C)c5O)[C@H]5CC[C@@H]54)c(=O)n3n2)=CCO1	1.17	> 10000	17.4	–
[2H]C1([2H])CCC(c2nc3n4c(c(N5CCN(C(=O)c6ncnc(C)c6O)[C@H]6CC[C@@H]65)c(=O)n3n2)C(C)CC4C(=O)Nc2scc(C(F)(F)F)c2C)=CCO1 (some centres unmarked)	–	–	18	cell inhibitory activity (in words) (SW48 (CRC, MSI)): maintain excellent cell inhibitory activity
CCc1c(N2CCN(C(=O)c3c(O)ccc4ccnn34)CC2)c(=O)n2nc(C3=CCOCC3)nc2n1CC(=O)Nc1ccc(C(F)(F)F)cc1Cl	2.51	–	–	–
[2H]C1([2H])CCC(c2nc3n4c(c(N5CCN(C(=O)c6ncnc(C)c6O)[C@H]6CC[C@@H]65)c(=O)n3n2)C(C)CC4C(=O)Nc2csc(C(F)(F)F)c2C)=CCO1 (some centres unmarked) [322-P4]	1.09	> 10000	8.2	AUC ([2]; IV, 1 mg/kg): 1586 ng·h/mL; T1/2 ([2]; IV, 1 mg/kg): 1.37 h; AUC ([2]; PO, 10 mg/kg): 8253 ng·h/mL; Cmax ([2]; PO, 10 mg/kg): 3257 ng/mL; F ([2]; PO): 52.0%
[2H]C1([2H])CCC(c2nc3n4c(c(N5CCN(C(=O)c6ncnc(C)c6O)[C@H]6CC[C@@H]65)c(=O)n3n2)C(C)CC4C(=O)Nc2csc(C(F)(F)F)c2C)=CCO1 (some centres unmarked) [322-P3]	1.02	> 10000	14.2	–
[2H]C1([2H])CCC(c2nc3n(CC(=O)Nc4scc(C(F)(F)F)c4C)c(CC)c(N4CCN(C(=O)c5ncnc(C)c5O)CC4)c(=O)n3n2)=CCO1	1.74	> 10000	32.6	–
[2H]C1([2H])CCC(c2nc3n(CC(=O)Nc4scc(C(F)(F)F)c4C)c(CC)c(N4CCN(C(=O)c5ncnc(C)c5O)[C@H]5CC[C@@H]54)c(=O)n3n2)=CCO1	1.06	> 10000	10	TGI (%) Day21 ([3]; 1 mg/kg): 33.96%; TGI (%) Day21 ([3]; 3 mg/kg): 74.46%; anti-tumor effects (in words) ([3]; 10 mg/kg): significant anti-tumor effects; TGI (%) Day21 ([3]; 10 mg/kg): 101.85%; AUC ([4]; IV, 0.5 mg/kg): 1.365 µM·h; T1/2 ([4]; IV, 0.5 mg/kg): 4.05 h; AUC ([4]; PO, 1 mg/kg): 3.388 µM·h; Cmax ([4]; PO, 1 mg/kg): 684 nM; F ([4]; PO, 1 mg/kg): 127%; T1/2 ([4]; PO, 1 mg/kg): 4.43 h; AUC ([2]; IV, 1 mg/kg): 1503, h*ng/mL; T1/2 ([2]; IV, 1 mg/kg): 1.12 h; AUC ([2]; PO, 10 mg/kg): 10198 ng·h/mL; Cmax ([2]; PO, 10 mg/kg): 4657 ng/mL; T1/2 ([2]; PO, 10 mg/kg): 1.60 h; F ([2]; PO): 67.9%
CCc1c(N2CCN(C(=O)c3ncnc(C)c3O)CC2)c(=O)n2nc(C3=CCN(C(=O)OC4CCC(OC)CC4)CC3)nc2n1CC(=O)Nc1ccc(C(F)(F)F)cc1Cl (centres unmarked)	4.6	> 10000	76.3	–
CCc1c(N2CCN(C(=O)c3ncnc(C)c3O)CC2)c(=O)n2nc(C3=CCOCC3)nc2n1CC(=O)Nc1ccc(C(F)(F)F)s1	20.3	–	–	–
